Literature values, collected in patent US12697342B2, “Non-surgical prevention of boar taint and aggressive behavior” (priority 2022, dated 2026).
For at least one compound, name, drawing or mass did not settle the structure.

Tested on: Sertoli cells
Conditions: pig from birth to 11 weeks

CC(C)C(=O)Nc1ccc([N+](=O)[O-])c(C(F)(F)F)c1 [Flutamide]
number of Sertoli cells: increased
